Here are results for 2 molecules from article PMC3355152.

By UniProt entry, the sequences of proteins in these tests, tags left out.
UniProt O42978: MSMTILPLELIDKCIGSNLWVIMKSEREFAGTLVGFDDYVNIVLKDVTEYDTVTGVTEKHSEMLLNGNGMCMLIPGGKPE

No constants are given. Whether binding was seen depends on the method and setting. Some entries that bind do so weakly or less than the wild type.

Assay [1] addresses SpLsm5 (Lsm5 from S. pombe) (S. pombe) (UniProt O42978). Kind of assay: crystal structure; SeMet-SpLsm5/6/7; hanging drop, 15°C, 0.1 M Mes pH 6.5, 0.1 M MgCl2, 32% PEG 400; 2.3 Å, SAD; both purified.
Assay [2] concerns the target T1, SpLsm6 (Lsm6 from S. pombe) (S. pombe) (UniProt Q9UUI1).
T1 sequence (chain, SeMet-substituted in the crystal): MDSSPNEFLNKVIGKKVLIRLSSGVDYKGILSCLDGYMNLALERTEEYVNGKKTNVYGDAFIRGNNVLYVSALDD
Described as above.

B1: SpLsm6 (Lsm6 from S. pombe) (protein, UniProt Q9UUI1 1-75)
chain: MDSSPNEFLNKVIGKKVLIRLSSGVDYKGILSCLDGYMNLALERTEEYVNGKKTNVYGDAFIRGNNVLYVSALDD
modifications: SeMet-substituted in the crystal
In the case of B1, the binding entry in assay [1] is reported as “binds”.

B2: SpLsm7 (Lsm7 from S. pombe) (protein, UniProt O74499 1-113)
chain: MSSLQKRPGPGNSSQPTERPRKESILDLSRYQDQRIQATFTGGRQITGILKGFDQLMNLVLDDVEEQLRNPEDGKLTGAIRKLGLVVVRGTTLVLIAPMDGSEEIPNPFVQAE
modifications: SeMet-substituted in the crystal
On to B2, for which the binding entry in assay [2] and in assay [1] was “binds” each time.
